The results in this text go back to the supplement of paper PMC12823440, “Inhibitors supercharge kinase turnover through native proteolytic circuits” (Nature, 2025).

The chains behind the UniProt entries cited, without tags or fusion partners. Where a name states a change or a piece, a line headed by the entry shows the natural chain unless it says otherwise.
UniProt P49840: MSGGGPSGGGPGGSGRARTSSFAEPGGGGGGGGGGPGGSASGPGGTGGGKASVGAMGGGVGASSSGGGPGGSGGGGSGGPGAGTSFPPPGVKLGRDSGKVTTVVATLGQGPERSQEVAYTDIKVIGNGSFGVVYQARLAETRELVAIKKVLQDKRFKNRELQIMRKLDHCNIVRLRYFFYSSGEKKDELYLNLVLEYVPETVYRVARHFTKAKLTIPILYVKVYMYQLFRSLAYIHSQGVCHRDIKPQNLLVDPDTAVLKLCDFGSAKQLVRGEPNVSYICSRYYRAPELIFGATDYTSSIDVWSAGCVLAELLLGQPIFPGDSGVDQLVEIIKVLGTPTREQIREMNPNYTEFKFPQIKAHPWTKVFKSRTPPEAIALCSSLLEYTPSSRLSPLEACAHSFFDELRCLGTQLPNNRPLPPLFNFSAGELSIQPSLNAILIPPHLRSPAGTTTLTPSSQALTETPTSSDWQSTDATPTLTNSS

Where a name gives a salt, the structure may show the parent alone. Some of the results follow. The calls rarely recur for the same compound in another form.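 Kinases, fused to nanoluciferase, were expressed in K562 cells; luminescence was measured every 4 h from 2 to 18 h as percent of control (DMSO = 100%, positive control = 0%). A time point is decreased if signal falls significantly (2 sigma). Hits were called by the authors by a rule that is not shown; the count of time points alone does not decide it.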

The target of this test is GSK3A (UniProt P49840). The experiment in a line: number of time points (of 5) at which kinase-Nluc abundance scored as decreased, DMSO-normalised (count); higher = more persistent destabilization. As to conditions: K562; 2-18 h.
For `CCc1c(C(=O)NNC(=O)C(O)c2cc(F)cc(F)c2)ccc(O)c1C` (stereo not drawn) (10 µM), the “number of time points” value came out at 0.
The value for `COc1cc2ncnc(Nc3ccc(Cl)cc3F)c2cc1OC` (10 µM) was 0; that for `COc1cc(/C=C/C(=O)NCC(O)c2ccc(O)cc2)ccc1O` (stereo not drawn) [N-Feruloyloctopamine] (2.5 µM) was 0; that for `NC(=O)c1nc(Nc2ccccc2)sc1NC(=O)C1CCCCC1` (10 µM) was 0.
For the compound `O=c1cc(CN2CCOCC2)occ1OCCCCCSc1ccnc2cc(C(F)(F)F)ccc12` (10 µM), the “number of time points” value amounted to 0.
The value for `O=C(O)CCC(=O)Nc1ccc(Br)cn1` [Bikinin] (10 µM) was 0.
As to `CC[C@@H](Oc1nc(Oc2cc(C)cc(-c3cccc(CN)c3)c2)c(F)cc1F)C(=O)O` (10 µM), the “number of time points” value came out at 0.
The value for `C[C@]1(O)CCN(c2nc(N3C[C@H](O)[C@@H](O)C3)cc(C(F)(F)F)c2C#N)C1` (10 µM) was 0.
The value for `COc1ccccc1-c1cc(Nc2cccc(CS(N)(=O)=O)c2)ncn1` (10 µM) was 0.
In the case of `CC(=O)c1c(C)cc2cccc(O)c2c1O` [Nepodin] (10 µM), the “number of time points” value was found to be 0.
The value for `NC(=O)c1ccc2[nH]ccc2c1` (10 µM) was 0; that for `COc1cc2c(cc1OC)CN(S(=O)(=O)c1ccc(OC)c(N3CCN(C(=O)c4ccc(F)cc4C(F)(F)F)CC3)c1)CC2` (10 µM) was 0; that for `OCCn1cc(-c2ccc3c(c2)CC/C3=N\O)c(-c2ccncc2)n1` (10 µM) was 0.
The value for `C[C@@H]1CC[C@@H](Nc2nc(NC(C)(C)C)ncc2C(N)=O)C[C@H]1O` (10 µM) was 0.
The value for `CCc1cc2c(cc1N1CCC(N3CCOCC3)CC1)C(C)(C)c1[nH]c3cc(C#N)ccc3c1C2=O` [Alectinib] (10 µM) was 0; that for `COCCNc1nc2ccc(C#CC3(O)CCCCC3)cc2n1-c1ccnc(N)n1` (10 µM) was 0.
For `Cc1[nH]c(/C=C2\C(=O)Nc3ccccc32)c(C)c1CCC(=O)O` [Orantinib] (10 µM), the “number of time points” value was 0.
The value for `Nc1cc(C(F)(F)F)c(-c2cc(N3CCOCC3)nc(N3CCOCC3)n2)cn1` [Buparlisib (Hydrochloride)] (2.5 µM) was 0; that for `CCN1CCN(Cc2ccc(Nc3ncc(F)c(-c4cc(F)c5nc(C)n(C(C)C)c5c4)n3)nc2)CC1` [Abemaciclib (methanesulfonate)] (10 µM) was 0; that for `Cc1ccc2cc(-c3c(C)ccc(C(=O)c4c(-c5ccccc5)n(C)n(-c5ccccc5)c4=O)c3N)ccc2n1` (2.5 µM) was 0.
The value for `FC(F)(c1ccc2ncccc2c1)c1nnc2ccc(-c3ccncc3)nn12` (10 µM) was 0.
Next, `O=C1N[C@@H](Cc2c[nH]c3ccccc23)C(=O)N2CCC[C@@H]12` [Brevianamide F] (10 µM): 0; `Cc1nc2sccn2c(=O)c1CCN1CCC(=C(c2ccccc2)c2ccc(F)cc2)CC1` (10 µM): 0.
Take `O=c1[nH]c(=O)n([C@@H]2O[C@H](CO)[C@@H](O)[C@@H]2O)cc1/C=C/Br` [Sorivudine] (10 µM): the “number of time points” value was found to be 0.
Next, `COc1cc2nccc(Oc3ccc(NC(=O)NC4CC4)c(Cl)c3)c2cc1C(N)=O` [Lenvatinib (mesylate)] (10 µM): 0; `CN1C(=O)N[C@H](Cc2c[nH]c3c(Cl)cccc23)C1=O` [Necrostatin 2] (10 µM): 0.
The value for `CCN1CCN(Cc2ccc(Nc3ncc(F)c(-c4cc(F)c5nc(C)n(C(C)C)c5c4)n3)nc2)CC1` [Abemaciclib] (2 µM) was 0; that for `Cc1ccc2nc(NCCN)c3ncc(C)n3c2c1` (2.5 µM) was 0.
Next, `CNC(=O)c1c(F)cccc1Nc1nc(Nc2cc3c(cc2OC)CCN3C(=O)CN(C)C)nc2[nH]ccc12` (10 µM): 0; `Cn1nccc1Nc1nccc(-c2ccn([C@H](CO)c3ccc(Cl)c(F)c3)c(=O)c2)n1` [Ravoxertinib hydrochloride] (10 µM): 0.
On to `CN(C)CCSSCCNC(=O)C1CCN(C(=O)CSc2ccc(Cl)cc2)CC1` (10 µM), for which the “number of time points” value is 0.
Next, `CNC(=O)c1cc(COc2nnc(Nc3ccc(Cl)cc3)c3ccoc23)ccn1` [Telatinib] (10 µM): 0; `NCCNS(=O)(=O)c1cccc2c(Cl)cccc12` [A-3 (hydrochloride)] (10 µM): 0; `O=C(Nc1ccc(CN2CCOCC2)cc1)c1ccc(-c2cccc(Cl)c2)o1` (10 µM): 0.
Next, `CCN1CCN(Cc2ccc(-c3cc4c(N[C@H](C)c5ccccc5)ncnc4[nH]3)cc2)CC1` (2.5 µM): 0; `COc1cccc(OC)c1C(=O)OCc1cc(O)ccc1O[C@@H]1O[C@H](CO)[C@@H](O)[C@H](O)[C@H]1O` [Curculigoside] (10 µM): 0; `Nc1ncnc2c1c(-c1ccc(Oc3ccccc3)cc1)nn2C1CCCC1` (2.5 µM): 0.
Next, `CC#CC(=O)N1CC[C@@H](n2c(=O)n(-c3ccc(Oc4ccccc4)cc3)c3c(N)ncnc32)C1` [Tirabrutinib] (10 µM): 0.
